From US12286453B2, “Methods of sequencing using nucleotides with 3′ acetal blocking group” (ILLUMINA CAMBRIDGE LIMITED, priority 2020, dated 2025)

Conditions: 50 mM glycine in incorporation buffer vs ethanolamine

NCC(=O)O [glycine]
phasing value: decreased substantially
prephasing value: slight increase
